Experimental data from patent US8394969B2, “Cyclic benzimidazole derivatives useful as anti-diabetic agents” (Merck Sharp & Dohme Corp., priority 2008, dated 2013).
Some results were stated once for a whole list of compounds, not compound by compound.

The chains behind the UniProt entries cited, without tags or fusion partners. Where a name states a change or a piece, a line headed by the entry shows the natural chain unless it says otherwise.
UniProt Q13131: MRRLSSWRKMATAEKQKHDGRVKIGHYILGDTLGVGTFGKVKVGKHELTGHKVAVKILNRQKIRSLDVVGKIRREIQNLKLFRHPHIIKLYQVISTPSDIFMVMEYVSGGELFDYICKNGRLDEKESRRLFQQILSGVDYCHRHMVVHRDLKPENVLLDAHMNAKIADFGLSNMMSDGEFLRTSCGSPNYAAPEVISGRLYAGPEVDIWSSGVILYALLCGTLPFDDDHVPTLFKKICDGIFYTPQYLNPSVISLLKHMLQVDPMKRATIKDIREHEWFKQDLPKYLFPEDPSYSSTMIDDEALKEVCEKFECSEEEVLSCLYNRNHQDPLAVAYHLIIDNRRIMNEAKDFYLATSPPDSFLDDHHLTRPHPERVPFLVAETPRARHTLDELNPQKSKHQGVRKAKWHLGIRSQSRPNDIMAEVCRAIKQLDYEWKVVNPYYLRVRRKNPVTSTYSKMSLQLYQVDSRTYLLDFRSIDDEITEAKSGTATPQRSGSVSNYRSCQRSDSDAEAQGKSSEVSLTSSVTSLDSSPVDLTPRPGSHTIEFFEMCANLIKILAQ
UniProt Q9Y478: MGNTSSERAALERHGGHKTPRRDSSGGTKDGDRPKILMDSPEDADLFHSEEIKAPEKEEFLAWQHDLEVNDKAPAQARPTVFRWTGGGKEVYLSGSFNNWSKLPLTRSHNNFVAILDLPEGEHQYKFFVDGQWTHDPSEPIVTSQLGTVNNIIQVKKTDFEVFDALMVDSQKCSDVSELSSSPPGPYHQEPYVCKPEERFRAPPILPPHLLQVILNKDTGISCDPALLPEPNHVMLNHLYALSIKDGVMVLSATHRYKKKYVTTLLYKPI

Biological target: recombinant human AMPK complex 1 (containing α1β1γ1) (Homo sapiens, UniProt Q13131+Q9Y478)
Test: […] (in vitro AMPK activation assay)
Format: biochemical
Conditions: recombinant human AMPK complex 1 (α1β1γ1); for % Maximum AMP Activation of human AMPK Complex 1: basal activity subtracted
Procedure: Recombinant viruses were generated by cotransfection of AMPK/pBacPak9 clones with Baculogold baculovirus DNA (Pharmingen) in spodoptera frugiperda 21 cells according to the manufacturer's instructions. Each round of virus amplification was performed for 5 days in Grace's medium containing 10% serum. Virus that had been subjected to three rounds of amplification was used for all protein production procedures. To express the AMPK complex, sf21 cells were adapted to serum free medium (SF900 II, Invitrogen) by sequential dilution from serum containing stocks into SF900 II medium and maintained in shaker flasks at 90 rpm at 27° C. The recombinant AMPK enzyme complex was produced by triple infection, one recombinant virus for each of the subunits, in sf21 cells under serum free conditions. […] Cells were harvested by centrifugation at 10,000×g for 15 minutes after 72 hours of infection with viruses. The insect cell pellet from 2 liters of culture was resuspended in 50 ml lysis buffer (20 mM Tris-HCl, 50 mM NaCl, 50 mM NaF, 30 mM Na PPi, 0.25 M sucrose, 10 mM ZnCl2, 2 mM DTT, 0.4 mg/ml digitonin) and subjected to two cycles of freeze-thaw lysis in a dry-ice ethanol bath. Insoluble material was removed by centrifugation at 10,000×g and the supernatant was fractionated with use of polyethylene glycol (PEG).
The total in vitro AMPK activation assay volume is 50 μl in a 96-well plate. […] The reaction was initiated with addition of the enzyme. After 30-minute incubation at 30° C., the reaction was stopped by addition of 80 μl 1% H3PO4. Aliquots (100 μl) were transferred to 96-well MultiScreen plates (MAPHNOB50; Millipore Corp., Bedford, Mass., USA). The plate was washed three times with 1% H3PO4 followed by detection in a Top-count. The counts per minute from the basal activity (the reaction without activator) was subtracted from each well and the data were expressed as % maximum AMP activation followed by EC50 calculation.

**Q.** What does the source list for “5-(5-Biphenyl-4-yl-6-chloro-1H-benzoimidazol-2-yloxy)-3-methyl-phtalic acid [Example 13]”?
**A.** EC50: < 10 µM; % Maximum AMP Activation of human AMPK Complex 1: greater than 80%

**Q.** How did the EC50 turn out when “5-(6-Chloro-5--p-tolylethynyl-1H-benzoimidazol-2-yloxy)-2-methyl-benzoic acid methyl ester [Example 46]” was run?
**A.** Its EC50 is under 10 µM.

**Q.** And the “% Maximum AMP Activation of human AMPK Complex 1” value?
**A.** The value was “greater than 80%”.

**Q.** Which EC50 does the source give for “5-[(5-biphenyl-4-yl-6-chloro-1H-benzimidazol-2-yl)thio]-2,4-dichloroben [Example 63]” here?
**A.** Its EC50 is under 10 µM.

**Q.** What about the “% Maximum AMP Activation of human AMPK Complex 1” value of the same substance?
**A.** Its value is “greater than 80%”.
